The list shows a part of the results. Further columns of the screen follow, without active or inactive calls. Compounds called inactive in the main read-out are mostly missing here. Words in brackets tell the shape of the fitted curve; partial curves, single points and poor fits give uncertain potencies.
Assay: qHTS Assay for Modulators of Lamin A Splicing
Conditions: HeLa LMNA splicing GFP/RFP minigene ratio, 48 h
In short: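 S3 HeLa cells stably expressing lamin A-EGFP splicing minigene plus DsRed2, 600 cells/well, 48 h compound exposure at 37C. Laser-scanning cytometry; analysed as GFP (500-530 nm)/RFP (575-640 nm) total intensity ratio; 0.5% DMSO vehicle.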

[1] = measured here: GFP splicing reporter channel
[2] = measured here: RFP viability control channel

| Structure (SMILES) | AC50 [1] | AC50 [2] |
| --- | --- | --- |
| COCc1nnc(NC(=O)c2cccc(NC(=O)C(C)C)c2)s1 | 0.631 µM [rising, full curve, poor fit] |  |
| COc1ccc(S(=O)(=O)Cc2ccc(C(=O)N3CCN(c4cccc(C)c4)C(C)C3)o2)cc1 (centres undefined) | 10 µM [falling, single point] |  |
| CCc1n[nH]c(=S)n1/N=C/c1ccc(NC(C)=O)cc1 | 31.6 µM [rising, single point] | 14.1 µM [rising, single point] |
| CN(C)CCCN(C(=O)c1ccc(Br)s1)c1nc2cc3c(cc2s1)OCO3 | 39.8 µM [falling, partial curve, poor fit] |  |
| Cc1c(/C=N/NC(=O)CNc2ccccc2)c2ccccn2c1C(=O)c1ccncc1 |  | 17.8 µM [rising, partial curve, poor fit] |
| CCn1ccnc1CN(C)Cc1cn(-c2ccc(C)cc2)nc1-c1ccc(F)cc1 | 11.2 µM [falling, partial curve] | 12.6 µM [falling, partial curve] |
| O=C(NC1=NCCS1)C12CC3CC(CC(C3)C1)C2 |  | 17.8 µM [rising, partial curve, poor fit] |
| CCOc1ccc(-n2c(O)c(/C=N/Nc3nnc(C)c(=O)[nH]3)c3ccccc3c2=O)cc1 |  | 22.4 µM [rising, partial curve, poor fit] |
| Cc1ccc(-c2noc(CSc3nnc(Cc4ccccc4)n3-c3cccc(C)c3)n2)cc1 |  | 15.8 µM [rising, single point] |
| Cc1ccccc1OCC(O)CN1CCC(C)CC1 (centres undefined) |  | 0.0447 µM [falling, full curve, poor fit] |
| CC(C)CC(=O)c1c[nH]c(C(=O)N2CCN(Cc3ccccc3)CC2)c1 | 0.126 µM [rising, full curve] |  |
| CCOC(=O)Cc1c(C)c2ccc(N(CC)CC)cc2oc1=O | 14.1 µM [rising, single point] | 14.1 µM [rising, partial curve] |
| CC(=O)c1ccc(N/N=C(/C(N)=O)C2=NC(C)(C)Cc3ccccc32)cc1 |  | 7.08 µM [rising, partial curve] |
| COc1cc(NC(=O)c2cc(-c3cccnc3)nc3ccc(C)cc23)c(OC)cc1Cl |  | 5.62 µM [rising, single point] |
| CC(=O)c1ccc2noc(-c3ccccc3)c2c1 | 0.02 µM [rising, full curve, poor fit] |  |
| COc1ccc2c(c1)N(C[C@@H](C)CN(C)C)c1ccccc1S2 | 12.6 µM [falling, single point] | 14.1 µM [falling, single point] |
| CN=C1S/C(=C\c2cc(C)n(-c3ccccc3F)c2C)C(=O)N1C | 14.1 µM [rising, single point] | 11.2 µM [rising, partial curve] |
| CC(SCc1ccccc1)C(=O)N/N=C/c1cc2c(cc1Br)OCO2 (centres undefined) | 20 µM [rising, single point] | 20 µM [rising, single point] |

A different layout for three compounds above:
Structure (SMILES)	AC50 [1]	AC50 [2]
CN(C)CCCN(C(=O)c1ccc(Br)s1)c1nc2cc3c(cc2s1)OCO3	39.8 µM [falling, partial curve, poor fit]	
Cc1c(/C=N/NC(=O)CNc2ccccc2)c2ccccn2c1C(=O)c1ccncc1		17.8 µM [rising, partial curve, poor fit]
CCn1ccnc1CN(C)Cc1cn(-c2ccc(C)cc2)nc1-c1ccc(F)cc1	11.2 µM [falling, partial curve]	12.6 µM [falling, partial curve]

Going on with the list:

| Structure (SMILES) | AC50 [1] | AC50 [2] |
| --- | --- | --- |
| O=S(=O)(c1ccc2c(c1)OCCO2)N(Cc1ccc(F)cc1)Cc1nnc(-c2cccs2)o1 | 11.2 µM [rising, partial curve] | 12.6 µM [rising, single point] |
| O=c1oc2ccccc2c(O)c1CN1CCCCC1 | 11.2 µM [rising, partial curve] | 14.1 µM [rising, partial curve] |
| c1ccc(-c2noc(CN3CCOCC3)n2)cc1 | 0.01 µM [rising, full curve, poor fit] |  |
| O=C(Nc1cccc(F)c1)C1CCN(c2nnnn2-c2ccccc2)CC1 | 35.5 µM [rising, single point] | 22.4 µM [rising, single point] |
| Cc1cccc(OCC(=O)N/N=C\c2cn(C)c3ccccc23)c1 | 12.6 µM [falling, partial curve] | 11.2 µM [falling, partial curve] |
| CC(=O)N1CCCc2cc(S(=O)(=O)N3CCC(C(=O)NCc4cccc(C)c4)CC3)ccc21 | 7.08 µM [falling, partial curve] |  |
| O=C(N/N=C/c1ccc([N+](=O)[O-])cc1)c1ccc2nc[nH]c2c1 | 0.0631 µM [falling, full curve, poor fit] | 0.158 µM [falling, full curve, poor fit] |
| Cc1c(Cl)cccc1N/C(=N/S(=O)(=O)c1cccs1)c1ccccc1 | 0.355 µM [falling, full curve, poor fit] | 7.94 µM [falling, partial curve] |
| Cc1ccc(C(C(=O)NCc2ccco2)N(C(=O)Cc2cccs2)c2cccnc2)cc1 (centres undefined) | 0.01 µM [rising, full curve, poor fit] |  |
| CCCCn1c2ccc(F)cc2c2nnc(NN)nc21 |  | 25.1 µM [rising, single point] |
| O=C(NN1C(=O)c2ccccc2NC1c1ccccn1)c1ccccc1 (centres undefined) | 0.112 µM [falling, full curve, poor fit] |  |
| CNc1c([N+](=O)[O-])cnn1-c1ccc(F)cc1 |  | 5.01 µM [falling, single point] |
| COCCn1c(N)c(N(Cc2ccccc2)C(=O)Cc2ccccc2F)c(=O)[nH]c1=O | 0.0224 µM [rising, full curve, poor fit] |  |
| CC(C)C(=O)Nc1nc2cc3c(cc2s1)OCO3 |  | 14.1 µM [rising, partial curve] |
| Cc1ccc2c(CC(=O)Nc3ccc(N4CCN(C)CC4)cc3C)coc2c1 | 1.12 µM [rising, single point] | 11.2 µM [rising, single point] |
| N#Cc1ccc(C(c2ccc(C#N)cc2)n2cncn2)cc1 | 0.00251 µM [falling, full curve, poor fit] |  |
| O=c1c(-c2cc(F)cc(F)c2)nc2cncnc2n1Cc1ccccc1Cl | 10 µM [falling, partial curve] |  |
| CSCCC(NC(=O)c1ccc(Br)cc1)C(=O)O (centres undefined) | 6.31 µM [falling, partial curve, poor fit] |  |

— PubChem BioAssay AID1487 (National Center for Advancing Translational Sciences (NCATS), 2009)
